This is one part of the list.
Test system: T1, CTL2-GFP (C. trachomatis L2/434/Bu, GFP-expressing)
T1 construct: L2/434/Bu, GFP-expressing
Parameters: species or system HeLa; Intracellular C. trachomatis growth in HeLa cells, bulk GFP fluorescence relative to DMSO
Settings: bulk GFP, single well; 28.5 h, 10 µM; inhibitor

| Compound | % of control remaining [%] |
| --- | --- |
| Cc1cccc(C)c1NC(=O)CN1CCN(c2nccnc2OCC2COc3ccccc3O2)CC1 (centres unmarked) [CBK082801T] | 79.7318 |
| Cn1cc(C(=O)Nc2ccc3c(c2)CN(Cc2ccccc2)C3)cn1 [CBK281838] | 147.645 |
| Cc1cc(C(=O)NCc2ccc(C(=O)O)cc2)no1 [CBK268108] | 121.013 |
| CC(CCCC(C)(C)O)NS(=O)(=O)c1ccc(-c2ccon2)s1 (centres unmarked) [CBK062466] | 111.353 |
| Cc1ccnc(-n2sc3ccccc3c2=O)n1 [CBK116499] | 81.6449 |
| CCc1cccc(CN2CCC(CNC(=O)Nc3ccc(Cl)cc3)CC2)c1 [CBK269151] | 138.323 |
| COc1ccc(S(=O)(=O)NCC(=O)O)cc1OC [CBK034454] | 165.253 |
| COc1ccc(C(CC(=O)O)CC(=O)O)cc1OC [CBK263545] | 103.393 |
| CNC(=O)CN1C(=O)CC2(C1=O)C(=O)N(C)c1ccc(OC)cc12 (centres unmarked) [CBK075190] | 122.469 |
| Cc1ccc(Nc2cc(-c3cccc4oc5ccccc5c34)ncn2)cc1NS(C)(=O)=O [CBK091150] | 94.7303 |
| O=C(Nc1ccc(OCc2ccccc2)cc1)c1cnc2n(c1=O)CCS2 [CBK287378] | 125.436 |
| CCC(c1ccc(F)cc1F)N1CCN(Cc2nc(C)no2)CC1 (centres unmarked) [CBK304032] | 119.765 |
| Cc1ccnc(NC(=O)C2CCCN(C(=O)OC(C)(C)C)C2)c1 (centres unmarked) [CBK305875] | 131.144 |
| Cc1cc2ccccc2n2c(SCC(=O)Nc3nsc(-c4ccccc4)n3)nnc12 [CBK265673] | 96.1643 |
| Cc1sc2nc(N)c(C(=O)NC(C)C)cc2c1C [CBK269259] | 134.747 |
| O=c1nc(CN2CCN(c3ncccn3)CC2)[nH]c2ccccc12 [CBK269918] | 109.844 |
| Cc1nn(C)c(Cl)c1S(=O)(=O)Nc1ccc2cn[nH]c2c1 [CBK067141] | 114.451 |
| COc1cc(/C=N/NC(=O)CNC(=O)c2ccncc2)ccc1O [CBK262013] | 87.9587 |
| N#Cc1cccc(-n2cc(-c3ccc(C(F)(F)F)cc3)nn2)c1 [CBK112957] | 94.2007 |
| O=C1CC2CC3CC2C(Sc2ccccc2)C3O1 (centres unmarked) [CBK016225] | 107.079 |
| Cc1c(S(=O)(=O)Nc2ccc(C(O)(C(F)(F)F)C(F)(F)F)cc2)cnn1-c1ccccc1 [CBK062099] | 110.789 |
| CC(=O)Nc1cc(C(=O)Nc2ccc(Br)cc2)ccc1C [CBK267788] | 136.555 |
| Nc1cccc(-c2ccc(OC3CCNCC3)cc2)c1 [CBK126959T] | 112.538 |
| CCC(CO)Nc1nccnc1-c1cccc(F)c1 (centres unmarked) [CBK036775] | 79.4574 |
| Cc1ccc(S(=O)(=O)Nc2sccc2C(=O)Nc2ccc(F)cc2)cc1 [CBK042302] | 140.093 |
| O=C(CCN1CCCCC1)NC1Cc2ccccc2C1 [CBK200364] | 92.5429 |
| COc1cccc(C(=O)Nc2ccc(-c3noc(-c4ccncc4)n3)cc2)c1 [CBK269892] | 146.141 |

| Compound | % of control remaining [%] |
| --- | --- |
| CC(=O)c1c(-c2cccc3ccccc23)nc2n(CCN3CCCCC3)c3ccccc3n12 [CBK278243C] | 98.0283 |
| O=C(COc1cccc2ccccc12)NNC(=O)C1CCCO1 (centres unmarked) [CBK263007] | 105.638 |
| O=C(COc1ccc(F)cc1)Nc1cccc2[nH]ccc12 [CBK159653] | 141.661 |
| Cc1cn(CC(=O)N2CCC3(CCCNC3)C2)c(=O)[nH]c1=O (centres unmarked) [CBK153231C] | 114.715 |
| O=C1OCCN1S(=O)(=O)c1ccc(CN2CCN(Cc3ccc(S(=O)(=O)N4CCOC4=O)cc3)CC2)cc1 [CBK024729] | 130.643 |
| O=C(COc1ccc(F)cc1)N1CCN(c2ncccn2)CC1 [CBK144499] | 117.868 |
| O=C(CSCc1c(F)cccc1Cl)NCc1ccncc1 [CBK268381] | 137.724 |
| CS(=O)(=O)N1CCc2cc(-c3csc(C4CC4)n3)ccc21 [CBK306347] | 153.087 |
| CCCCc1ccc(NC(=N)Nc2nc(C)cc(C)n2)cc1 [CBK262967] | 49.2012 |
| c1ccc(C(NCc2cncs2)C2CCCC2)cc1 (centres unmarked) [CBK304812] | 107.821 |
| COc1ccc(-c2ccc3ccc(=O)[nH]c3n2)cc1C [CBK073712] | 140.526 |
| Cc1nc(C)c(C(=O)NCC2CCCOC2)s1 (centres unmarked) [CBK282194] | 104.211 |
| Cc1onc(-c2ccccc2)c1C(=O)NC(=S)Nc1sc2c(c1C#N)CCC2 [CBK267492] | 153.586 |
| Cc1cc(SCC(C)C)n2ncnc2n1 [CBK261808] | 102.232 |
| CC(C)(CNC(=O)Cn1cc(C(=O)NC2CCCCC2)ccc1=O)c1cccc(F)c1 [CBK286110] | 117.093 |
| c1ccn(CCOc2nccnc2-c2ccsc2)c1 [CBK106772] | 120.814 |
| COc1ccc(CCC(=O)c2cnc3sc4c(n23)CCCCC4)cc1 [CBK016849] | 103.143 |
| CC(=O)Nc1cccc(Oc2nccnc2-c2cc3ccccc3s2)c1 [CBK106784] | 100.937 |
| CS(=O)(=O)Nc1cc2cccnc2nc1-c1ccccc1 [CBK085689] | 94.6761 |
| Clc1ccc(-n2c(SCc3nc4ccccc4[nH]3)nnc2-c2ccncc2)cc1 [CBK267557] | 161.282 |
| O=C1CC(c2cc(F)ccc2F)c2c(-c3ccc(Cl)cc3)n[nH]c2N1 (centres unmarked) [CBK288000] | 103.686 |
| CCN(CCn1cccn1)c1nc2nonc2nc1N(C)C [CBK306630] | 127.447 |
| CC(=O)N1CCC2(C/C=C/C[C@H]3CN(C(=O)C4CCC4)CC[C@H]3NC(=O)CNC2=O)CC1 [CBK292108] | 112.11 |
| COC(=O)c1sc2cc(NC(=S)NNC(=O)c3ccoc3C)ccc2c1Cl [CBK266877] | 164.383 |
| N#Cc1sc2nc(-c3ccncc3)ccc2c1N [CBK288547] | 130.634 |
| Cc1cc(C)c(S(=O)(=O)N2CCC(C(=O)Nc3ccc(C(N)=O)cc3)CC2)c(C)c1 [CBK266424] | 168.13 |
| CC1CCN(S(=O)(=O)c2ccc(NC(=O)CN3CCOCC3)cc2)CC1 [CBK268339] | 157.854 |

Reprinted from the results shown for reference:

| Compound | % of control remaining [%] |
| --- | --- |
| O=C1CC(c2cc(F)ccc2F)c2c(-c3ccc(Cl)cc3)n[nH]c2N1 (centres unmarked) [CBK288000] | 103.686 |
| CCN(CCn1cccn1)c1nc2nonc2nc1N(C)C [CBK306630] | 127.447 |
| CC(=O)N1CCC2(C/C=C/C[C@H]3CN(C(=O)C4CCC4)CC[C@H]3NC(=O)CNC2=O)CC1 [CBK292108] | 112.11 |
| COC(=O)c1sc2cc(NC(=S)NNC(=O)c3ccoc3C)ccc2c1Cl [CBK266877] | 164.383 |

Remaining list, next part

| Compound | % of control remaining [%] |
| --- | --- |
| COc1ccc(CN[C@H]2[C@H](O)[C@@H](N3CCN(C(C)=O)CC3)[C@@H]3OC[C@H]2O3)cc1 [CBK288808] | 117.688 |
| O=C(NC1CCCCC1)N1Cc2nc[nH]c2C[C@H]1c1nc(-c2ccc3c(c2)OCO3)no1 [CBK289000] | 126.345 |
| O=C(O)C1CCN(c2ncnc3sc4c(c23)CCC4)CC1 [CBK268326] | 126.194 |
| NC(=O)c1c(NC(=O)c2ccc(-c3ccccc3)cc2)sc2c1CCC2 [CBK265747] | 150.677 |
| O=C(Oc1ccccc1O)c1cccc(Cl)c1 [CBK090130] | 57.2094 |
| CC1CCCN(C(=O)N(C)C)C1 (centres unmarked) [CBK023175] | 135.134 |
| Sc1nnc(Cc2cccc3ccccc23)n1-c1ccccc1 [CBK265052] | 88.5217 |
| O=C(c1cc(F)cc(F)c1)N1CCn2c(nnc2C2CC2)C1 [CBK283772] | 120.908 |
| CCOC(=O)c1sc(-c2ccc3c(c2)OCO3)nc1O [CBK078565] | 160.868 |
| CCc1nn(CC(=O)NC(C)(C)C)c(=O)c2cc3sc(C)cc3n12 [CBK284124] | 108.709 |
| COc1ccc(-c2nc(-c3ccc(C(=O)N4CCOCC4)cc3)cnc2N)cc1 [CBK116509] | 124.584 |
| CCOC(=O)c1ccc(-c2ccc(C(=O)Nc3ccc(-c4nc5ccccc5o4)c(O)c3)o2)cc1 [CBK263428] | 133.669 |
| COc1ccc(-c2cc(-c3ccccc3)nc(N/N=C/c3ccc(O)c(C)c3O)n2)cc1 [CBK261721] | 104.217 |
| CCc1ccc2occ(CC(=O)Nc3ccc(C(=O)OC)cc3)c2c1 [CBK268318] | 95.2787 |
| CC(C)c1ccc(NC(=O)O[C@@H]2CO[C@H]3[C@@H]2OC[C@@H]3NC(=O)c2cncnc2)cc1 [CBK289480] | 108.694 |
| CSc1nc(NC(=O)C2CCCO2)cc(N2CCNCC2)n1 (centres unmarked) [CBK026740T] | 134.615 |
| CCOC(=O)N1CCC(Nc2nc3ccccc3nc2OCc2cc(C)on2)CC1 [CBK171825] | 152.854 |
| O=C1Nc2ccc([N+](=O)[O-])cc2C1(O)N1CCCCC1 (centres unmarked) [CBK262496] | 121.187 |
| O=C(Nc1ccc(F)cc1)c1ccc(NS(=O)(=O)Cc2ccccc2[N+](=O)[O-])cc1 [CBK050405] | 104.239 |
| Cc1ccc(C2(CN3CCN(Cc4ncc[nH]4)CC3)CC2)cc1 [CBK283306] | 77.6431 |
| CC(NC(=O)COc1ccc(Cl)cc1Cl)C(=O)O (centres unmarked) [CBK261425] | 100 |
| CCOC(=O)[C@H]1CC[C@]2(CC1)CNC(=O)c1cc(Cl)ccc1O2 [CBK284849] | 110.08 |
| O=C(c1ncoc1-c1ccc(F)cc1)N1CCN2CCCCC2C1 (centres unmarked) [CBK282400] | 133.322 |
| CN(C)S(=O)(=O)N(CC(=O)Nc1cccnc1)c1ccccc1 [CBK267958] | 80.0065 |
| CN(c1ccc(C(=O)Nc2ccc(S(=O)(=O)N3CCCC3)cc2)cc1)S(=O)(=O)c1ccccc1 [CBK266896] | 69.0828 |
| COc1ccc(C(=O)OC(C)(C)C)c(-c2cncc(N3CCN(CCO)CC3)n2)c1 [CBK037239] | 225.995 |
